The nature of this test: qHTS Assay for Lipid Storage Modulators in Drosophila S3 Cells.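 As to cell number change: cells counted by Cell Tracker Red CMTPX staining in the red channel.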 Particulars: BODIPY lipid droplet fluorescence, 18-24 h; for cell number change: measured here: cell count max response, cells fed with added oleic acid. A digest of the protocol:
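Drosophila S3 cells got compounds at several concentrations plus oleic acid (400 uM solution). Laser-scanning cytometry with 488 nm excitation read lipid droplets at 500-530 nm and cells at 575-640 nm. Percent activity was relative to 20 uM Triacsin C.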
In general terms: qHTS replaces the single test concentration by a dilution series.

Where [1] appears, read: measured here: lipid fluorescence (Fed channel) AC50, cells fed with added oleic acid.
Setting [2] is: measured here: cell number channel AC50, cells fed with added oleic acid.

SMILES strings stand for the structures. Some of the results follow. These are further read-outs of the screen, such as a control signal, another cell line or another target. No call is given for them. Compounds called inactive in the main read-out are mostly missing here. The note in brackets gives the kind of curve behind each potency; many fits are weak.

Turning to `O=C(CN1CCN(c2ccccc2F)CC1)c1ccc2c(c1)OCO2`, the cell number change worked out at 6.13%. Besides, the AC50 – broadly, the midpoint of the concentration-response curve, whichever way the signal moves – under setting [1] is 2.59 µM [rising, full curve].

For `O=c1cc(O)c(-c2cccc(C(F)(F)F)c2)c(Cl)[nH]1`, under setting [2], the AC50 was 0.116 µM [falling, full curve, poor fit].

With `COc1ccc(-c2nnc(SCC#CCO)o2)cc1OC`, the cell number change was found to be 18.6%. Besides, the AC50 under setting [2] is 2.06 µM [rising, partial curve]. Besides, the AC50 under setting [1] is 2.06 µM [rising, partial curve].

Regarding `C=CCN(C(=O)CCS(=O)(=O)c1cccc2nsnc12)c1ccccc1`, the cell number change was -5.42%. Besides, the AC50 under setting [1] is 5.8 µM [falling, partial curve].

In the case of `CC(=O)N1CCC2(CC1)C/C(=N\NC(=S)Nc1ccc(C)cc1)c1cc(O)ccc1O2`, the cell number change worked out at 41.8%. Also, under setting [1], the AC50 was 0.517 µM [rising, full curve].

On to `Cc1cccc(CC(=O)N2CCN(C(=O)c3ccco3)CC2)c1`, for which the cell number change turned out to be 0.829%.

Take `NC(=O)c1ccc(NC(=O)CSc2nnc(-c3ccncc3)n2Cc2ccco2)cc1`: the half-maximal activity concentration (AC50) under setting [1] is 20.6 µM [falling, partial curve, poor fit].

With `O=C(N/N=C/c1nn(-c2ccccc2)cc1-c1ccccc1)c1ccncc1`, the cell number change was determined as 2.3%. Under setting [2], the AC50 is 0.116 µM [falling, full curve, poor fit]. Also, the AC50 under setting [1] is 7.31 µM [rising, partial curve].

Regarding `CC(=O)c1ccc(N2CCN(CN3C(=O)CC4(CCCC4)C3=O)CC2)c(F)c1`, the cell number change is 3.6%.

In the case of `CCc1nc(Nc2cccc(F)c2)c2oc3ccccc3c2n1`, the cell number change turned out to be 20.3%. Besides, the AC50 under setting [1] is 2.06 µM [rising, single point].

In the case of `Cc1ccc(S(=O)(=O)N2CCN(CC(=O)NC3CCCc4ccccc43)CC2)c(C)c1` (centres undefined), the cell number change amounted to 38.3%. For the same compound, under setting [2], the AC50 is 29.1 µM [rising, single point]. Also, the AC50 under setting [1] was 6.51 µM [falling, single point].

As for `CC1CCCCC1NC(=O)c1nn(C)c2c1CS(=O)(=O)c1ccccc1-2` (centres undefined), the cell number change turned out to be 7.16%. In addition, the AC50 under setting [1] was 29.1 µM [falling, single point].

With `O=c1c2ccccc2nc(-c2ccccc2)n1Cc1ccc(Cl)cc1`, the cell number change amounted to 20.9%. Also, the AC50 under setting [1] was 2.31 µM [rising, full curve].

Take `CCc1[nH]nc(C(=O)N/N=C/c2ccncc2)c1C`: the cell number change is 17.3%. Under setting [1], the AC50 is 29.1 µM [rising, single point].

On to `CCOc1ccc(C(=O)CC(NCc2cccs2)C(=O)O)cc1` (centres undefined), for which the cell number change is -2.58%. Also, under setting [1], the AC50 is 0.0058 µM [falling, full curve, poor fit].

On to `CN(C)S(=O)(=O)Oc1ccccc1C(=O)Nc1ccc(F)cc1`, for which the cell number change was -14%. In addition, the half-maximal activity concentration (AC50) under setting [1] is 0.259 µM [falling, full curve, poor fit].

Turning to `O=C(CCl)N(CCc1ccccc1)CCc1ccccc1`, the cell number change amounted to 13.2%.

Consider `O=C(NCCc1ccccc1)C1CCN(S(=O)(=O)N2CCC3(CC2)OCCO3)CC1`, for which the cell number change was 52.2%. Moreover, the AC50 under setting [2] is 1.16 µM [rising, full curve].

Turning to `COc1cccc(NC(=O)CN(C)S(=O)(=O)c2ccc3c(c2)NC(=O)CS3)c1`, the cell number change is -31.2%. The AC50 under setting [2] is 32.6 µM [falling, single point].

With `Cc1nc2cncc(Br)c2n1C`, the cell number change was found to be 13.1%. The AC50 under setting [1] was 20.6 µM [rising, single point].

Regarding `CCOC1CCCCC1NS(=O)(=O)c1ccc(Cl)cc1` (centres undefined), the cell number change was -3.2%. Under setting [1], the AC50 was 4.61 µM [falling, partial curve].

On to `COC(=O)c1ccccc1OCC(=O)N1CCN(c2ccc(Cl)cc2)CC1`, for which the cell number change turned out to be 12.6%.

Consider `Cn1cnnc1SCCC(=O)Nc1ccccc1`, for which the cell number change was 0.356%.

For the compound `COc1ccc(OCC(O)Cn2c(Nc3ccccc3)nc3c2c(=O)n(C)c(=O)n3C)cc1` (centres undefined), the cell number change was -32.1%. The AC50 under setting [2] is 16.4 µM [falling, partial curve].

With `O=C(CN1C(=O)c2ccccc2S1(=O)=O)Nc1ccc(S(=O)(=O)N2CCCCCC2)cc1`, the cell number change was 10.3%.

Consider `c1cnc(N2CCN(c3nc4ccccc4n4cnnc34)CC2)nc1`, for which the half-maximal activity concentration (AC50) under setting [1] is 1.46 µM [falling, partial curve, poor fit].

On to `COc1ccc(CNC(=O)C2CCN(C(=O)c3ccc(F)cc3)CC2)cc1OC`, for which the cell number change was -19.6%. Besides, under setting [1], the AC50 is 4.11 µM [falling, partial curve].

In the case of `COc1cccc(NC(=O)COC(=O)c2ccccc2SCC(=O)N2CCCC2)c1`, the cell number change is -4.62%.

`COc1cccc(CN2CCNC(=O)C2CC(=O)NCCCC2CCCC2)c1OC` (centres undefined): the cell number change was 1.98%. Moreover, under setting [1], the AC50 was 6.51 µM [rising, single point].

Regarding `Cc1ccc(Cn2c(O)c(N=O)c3ccccc32)cc1`, the cell number change is 22%. Also, the AC50 under setting [1] was 18.4 µM [rising, single point].

In the case of `COc1ccc(C(C(=O)NC2CCCC2)N(Cc2cccnc2)C(=O)Cc2cccs2)c(OC)c1` (centres undefined), under setting [1], the AC50 was 23.1 µM [falling, single point].

In the case of `O=C(N/C(=C\c1cccnc1)C(=O)N1CCOCC1)c1cccc(Br)c1`, the cell number change is 16.2%. In addition, the AC50 under setting [1] was 1.84 µM [falling, single point].

As to `Cc1c(NC(=O)OCCNC(=O)Nc2ccccc2)sc(=S)n1C`, the cell number change amounted to 2.38%. In addition, the AC50 under setting [1] is 29.1 µM [falling, single point].

Turning to `CC1CCCN(C(=O)c2ccc(Cl)c(S(=O)(=O)N3CCCCCC3)c2)C1` (centres undefined), the cell number change was -2.11%. In addition, under setting [2], the AC50 was 3.26 µM [rising, single point]. Moreover, the AC50 under setting [1] was 2.59 µM [rising, partial curve].

Regarding `CC(C)CC(C(=O)O)N1C(=O)C2C3CC(C2C1=O)C1C(c2ccccc2)c2sc(=O)[nH]c2SC31` (centres undefined), the cell number change came out at 52.2%. For the same compound, under setting [2], the AC50 was 29.1 µM [rising, single point].

Regarding `N#CC1=C(S)N(c2ccccc2)C(c2cccs2)NC1=O` (centres undefined), the cell number change is -71.7%. Moreover, the AC50 under setting [2] was 32.6 µM [falling, single point]. Further, the AC50 under setting [1] is 1.46 µM [falling, partial curve, poor fit].

As for `COc1ccccc1-c1cc(C(=O)NCCCN2CCOCC2)no1`, the cell number change came out at 15.3%. The AC50 under setting [1] is 29.1 µM [rising, single point].

On to `Cc1ccc(NCN2C(=O)C3C4C=CC(C4)C3C2=O)cc1` (centres undefined), for which the cell number change was 2.86%. In addition, under setting [1], the half-maximal activity concentration (AC50) was 29.1 µM [rising, single point].

As for `CC(C)(C)c1ccc(C(O)CCCN2CCC(C(O)(c3ccccc3)c3ccccc3)CC2)cc1` (centres undefined), the cell number change was -13.1%. In addition, the AC50 under setting [1] is 7.31 µM [falling, partial curve, poor fit].

As to `COc1cc(C2Nc3ccc4ncccc4c3C3=C2C(=O)CC(C)(C)C3)cc(OC)c1O` (centres undefined), the AC50 under setting [1] was 0.82 µM [rising, single point].

For `O=Cc1cccn1Cc1ccc(Cl)cc1Cl`, the cell number change is -17.8%.

For the compound `COc1ccc([C@H]2CC(=O)C=C(c3ccc(Cl)c(Cl)c3)C2)cc1`, the cell number change was -25.4%. In addition, the AC50 under setting [2] was 0.461 µM [falling, full curve, poor fit]. Also, under setting [1], the AC50 was 0.82 µM [falling, partial curve].

Consider `CC(C)CN(C(=O)COC(=O)CCSc1ccc(F)cc1)c1c(N)n(Cc2ccccc2)c(=O)[nH]c1=O`, for which the cell number change was -13.8%. Further, the AC50 under setting [1] was 8.2 µM [falling, partial curve].

Turning to `COC(=O)CS(=O)(=O)c1ccc2c(c1)CC(=O)N2`, the cell number change was found to be 51.3%. Besides, under setting [2], the AC50 was 20.6 µM [rising, single point]. Besides, the AC50 under setting [1] was 6.51 µM [rising, single point].

With `CCOc1ccccc1CN1C(=O)NC(C)(c2ccccc2)C1=O` (centres undefined), the cell number change is -3.06%. Further, the concentration at half-maximal activity (AC50) under setting [1] was 5.8 µM [rising, partial curve, poor fit].

As to `Cc1ccc2nc(SCC(=O)c3ccc(O)cc3O)[nH]c2c1`, the cell number change stood at 25.4%. Under setting [2], the AC50 was 0.731 µM [falling, full curve]. Further, the half-maximal activity concentration (AC50) under setting [1] is 0.82 µM [falling, full curve].

In the case of `O=C(NN1C(=O)C2C3C=CC(C3)C2C1=O)C(O)c1ccccc1` (centres undefined), the cell number change is -8.78%.

With `CCN(CC)CCC(=O)N1c2ccccc2Sc2ccc(NC(=O)OC)cc21`, the cell number change was -19.8%.

`C=CCNc1nc(-c2cc3ccccc3o2)cs1`: the cell number change was -42.1%. In addition, the AC50 under setting [2] was 18.4 µM [falling, partial curve].

Regarding `O=C(CCCN1C(=O)/C(=C/c2ccc(F)cc2)SC1=S)NCCCn1ccnc1`, the cell number change is -0.382%. For the same compound, the AC50 under setting [1] is 18.4 µM [rising, partial curve].

As to `COCc1ccc(C(=O)N2CCCC(N(C)Cc3ccccc3)C2)s1` (centres undefined), the cell number change is 5.42%. Moreover, the AC50 under setting [1] is 5.8 µM [rising, full curve].

Regarding `COc1ccc(CNC(=O)[C@H](C)NC(=O)[C@@H]2Cc3ccccc3CN2)cc1`, the cell number change was 18.3%. The concentration at half-maximal activity (AC50) under setting [1] was 6.51 µM [rising, single point].

For the compound `CCC(C)[C@H](NC(=O)OC(C)(C)C)c1nnc(SCc2c(C)[nH]c(=O)[nH]c2=O)o1` (some centres undefined), the cell number change was -7.34%.

Consider `O=C(N/N=C/c1ccccn1)c1ccccc1`, for which the cell number change is -0.784%. In addition, under setting [1], the AC50 was 0.0259 µM [rising, single point].

For the compound `COc1ccc(C(=O)Cn2cnc3ccccc3c2=O)cc1OC`, the cell number change worked out at 9.4%. Moreover, the AC50 under setting [1] was 3.26 µM [rising, single point].

`O=C(COC(=O)c1ccc(S(=O)(=O)NCc2ccco2)cc1)NCc1ccc(F)cc1`: the cell number change is -1.47%. For the same compound, the concentration at half-maximal activity (AC50) under setting [2] is 0.731 µM [falling, single point].

With `Cc1sc(NC(=O)c2ccco2)c(C(c2cccnc2)N2CCN(C)CC2)c1C` (centres undefined), the AC50 is, setting by setting: under setting [2], 0.92 µM [rising, full curve, poor fit]; under setting [1], 3.66 µM [rising, single point].

In the case of `COc1ccc(OCC(=O)NC(=S)Nc2ccc(S(=O)(=O)Nc3cc(OC)nc(OC)n3)cc2)cc1`, the cell number change was found to be 0.522%. Besides, the AC50 under setting [1] was 29.1 µM [falling, partial curve, poor fit].

With `CCc1ccc(-n2c(=O)c3ccc(C(=O)NCCc4ccccc4)cc3n(CC(N)=O)c2=O)cc1`, the cell number change is 158%. For the same compound, the AC50 under setting [2] is 29.1 µM [rising, single point]. Moreover, under setting [1], the AC50 is 29.1 µM [rising, partial curve, poor fit].

With `CC(C)C(NS(=O)(=O)c1cccs1)C(=O)NCc1ccccc1` (centres undefined), the cell number change was 6.31%. The AC50 under setting [1] is 1.16 µM [rising, full curve].

For the compound `O=C(CSc1nnc(NC(=O)c2ccccc2[N+](=O)[O-])s1)NCC1CCCO1` (centres undefined), the cell number change is -12.7%.

Source of the values: PubChem BioAssay AID2685 (National Center for Advancing Translational Sciences (NCATS), 2010).
